Values of other authors in patent US20150366901A1, “Methods of Treating Heart Failure” (The Trustees of the University of Pennsylvania, priority 2013, published 2015).
Some of these results come from one statement about several compounds together. At least one compound was matched to its structure with a doubt left.

System: normal subjects
Conditions: dietary supplementation, high-intensity constant-work-rate exercise

In the case of `O=[N+]([O-])[O-].[Na+]` [sodium nitrate], the extension of time-to-exhaustion is listed as 15%-25%.
